Test results from patent US11920135B2, “Methods of treating VEGF/VEGFR resistant prostate, renal, or colorectal cancers using combination therapies” (University of Massachusetts, priority 2016, dated 2024).
For at least one compound, name, drawing or mass did not settle the structure.

Tests used:
[1] = test system: PC3 and C4-2 sensitive and resistant cells; assay: Colony formation and MTT viability of sensitive and resistant cell lines; assay type: cell-based
Experimental: FIG. 1F. PC3 and C4-2 resistant and sensitive cell lines were analyzed for colony formation in the presence or absence of 10 μM Pazopanib.
FIG. 2C. Resistant and sensitive populations were analyzed for sensitivity to bevacuzimab (1 mg/ml) in the presence of either a NRP inhibitory peptide (c-furSEMA) or control peptide (c-SEMA).
FIG. 8F. PC3 and C4-2 resistant and sensitive cell lines were cultured in the presence of pazopanib (10 μM) or DMSO for 72 hours and cell viability is analyzed using the MTT assay.
FIG. 9D. PC3 and C4-2 resistant cells (10^3 cells per 60 mm plate) were cultured in the presence of either c-SEMA or c-furSEMA (1 μM), control IgG or NRP2 inhibitory antibody (1 μg/ml), or their respective controls for 10 days and colonies were stained with crystal violet. Colonies with more than 50 cells were counted.
Cell-based assays: The chemosensitivity of prostate cancer cells was determined using a standard 3-(4,5-dimethylthiazol-2-yl)-2,5-diphenyltetrazolium bromide (MTT) cytotoxicity assay. The assay was performed 72 hours after treatment. FACS was used to isolate cells based on their surface expression of CD44, CD24, and the α6 and β4 integrins. The detailed procedure for isolating LSC cells from PTEN^pc−/− mice using lineage markers (CD31, CD45, and Ter119), Sca-1, and CD49f is described, e.g., in Mulholland, D. J., Xin, L., Morim, A., Lawson, D., Witte, O., and Wu, H. 2009. Lin−Sca−1+CD49fhigh stem/progenitors are tumor-initiating cells in the Pten-null prostate cancer model. Cancer Res 69:8555-8562; Lawson, D. A., Xin, L., Lukacs, R. U., Cheng, D., and Witte, O. N. 2007. Isolation and functional characterization of murine prostate stem cells. Proc Natl Acad Sci USA 104:181-186.
The resistant cell lines generated are referred to as PC3-R and C4-2R. As controls, we also exposed these cell lines to control IgG (hIgG) and DMSO and refer to these as sensitive cell lines (PC3-S and C4-2S) (FIGS. 1D-1E).

[2] = test system: VEGFhigh and VEGFlow PC3 cells; assay: Proliferation of VEGFhigh and VEGFlow cells; assay type: cell-based; conditions: bevacizumab 1 mg/ml, sunitinib 20 μM, 72 hours
Experimental: FIG. 6E. VEGF^high and VEGF^low cells were incubated with bevacuzimab (1 mg/ml) or sunitinib (20 μM) for 72 hours and their proliferation was assayed.

[3] = test system: metastatic, castration-resistant prostate cancer; conditions: sunitinib added to prednisone, 873 patients; cited from earlier work

Row | Compound | sensitivity of resistant cells after down-regulation of P-Rex1 ([1]; PC3-R cells with P-Rex1 shRNA, bevacizumab 1 mg/ml, sunitinib 20 μM) | ability of the resistant cell lines to form colonies or survive ([1]; PC3-R, C4-2R, bevacizumab 1 mg/ml, sunitinib 20 μM, 10 days colonies, 72 hours MTT) | effect on bevacizumab-resistant cells ([1]; increasing concentrations of sunitinib along with bevacizumab) | resistance to inhibition of viability and prostatosphere formation after expression of constitutively active MEK ([1]; sensitive cells) | resistance of VEGFhigh cells compared to VEGFlow cells (proliferation) [2] | overall survival compared with placebo [3] | resistance of PC3-R and C4-2R cells (colony formation, MTT viability) ([1]; pazopanib 10 μM)
1 | CCN(CC)CCNC(=O)c1c(C)[nH]c(/C=C2\C(=O)Nc3ccc(F)cc32)c1C [sunitinib] | increased their sensitivity | Neither bevacizumab nor sunitinib inhibited | did not have a significant effect | increased their resistance | more resistant | did not improve overall survival | –
2 | Cc1ccc(Nc2nccc(N(C)c3ccc4c(C)n(C)nc4c3)n2)cc1S(N)(=O)=O [pazopanib] | – | – | – | – | – | – | resistant
